{"sequences": {"note": "By UniProt entry, the sequences of proteins in these tests, tags left out. Where a name states a change or a piece, a line headed by the entry shows the natural chain unless it says otherwise. Residues count along the entry.", "UniProt P42224, 2-750": "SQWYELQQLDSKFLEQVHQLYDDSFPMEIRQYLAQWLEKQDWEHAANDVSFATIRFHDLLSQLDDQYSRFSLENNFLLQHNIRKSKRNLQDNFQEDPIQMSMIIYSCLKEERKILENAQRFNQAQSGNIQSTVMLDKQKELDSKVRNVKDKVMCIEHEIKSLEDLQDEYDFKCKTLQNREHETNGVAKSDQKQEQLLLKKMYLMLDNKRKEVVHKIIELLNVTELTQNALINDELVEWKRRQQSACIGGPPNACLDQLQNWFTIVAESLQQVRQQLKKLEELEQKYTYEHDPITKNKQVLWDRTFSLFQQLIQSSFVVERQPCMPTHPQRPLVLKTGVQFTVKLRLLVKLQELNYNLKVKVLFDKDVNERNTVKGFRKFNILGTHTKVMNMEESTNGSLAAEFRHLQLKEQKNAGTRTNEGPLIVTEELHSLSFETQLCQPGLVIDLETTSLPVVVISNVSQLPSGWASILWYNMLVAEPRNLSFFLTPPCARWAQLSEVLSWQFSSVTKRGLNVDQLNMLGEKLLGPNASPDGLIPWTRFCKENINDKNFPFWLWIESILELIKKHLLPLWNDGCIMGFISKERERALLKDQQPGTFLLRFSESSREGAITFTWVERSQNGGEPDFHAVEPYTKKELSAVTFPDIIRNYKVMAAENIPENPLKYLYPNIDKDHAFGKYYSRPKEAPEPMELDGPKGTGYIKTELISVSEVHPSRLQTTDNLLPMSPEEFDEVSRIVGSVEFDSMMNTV", "UniProt P40763, 2-770": "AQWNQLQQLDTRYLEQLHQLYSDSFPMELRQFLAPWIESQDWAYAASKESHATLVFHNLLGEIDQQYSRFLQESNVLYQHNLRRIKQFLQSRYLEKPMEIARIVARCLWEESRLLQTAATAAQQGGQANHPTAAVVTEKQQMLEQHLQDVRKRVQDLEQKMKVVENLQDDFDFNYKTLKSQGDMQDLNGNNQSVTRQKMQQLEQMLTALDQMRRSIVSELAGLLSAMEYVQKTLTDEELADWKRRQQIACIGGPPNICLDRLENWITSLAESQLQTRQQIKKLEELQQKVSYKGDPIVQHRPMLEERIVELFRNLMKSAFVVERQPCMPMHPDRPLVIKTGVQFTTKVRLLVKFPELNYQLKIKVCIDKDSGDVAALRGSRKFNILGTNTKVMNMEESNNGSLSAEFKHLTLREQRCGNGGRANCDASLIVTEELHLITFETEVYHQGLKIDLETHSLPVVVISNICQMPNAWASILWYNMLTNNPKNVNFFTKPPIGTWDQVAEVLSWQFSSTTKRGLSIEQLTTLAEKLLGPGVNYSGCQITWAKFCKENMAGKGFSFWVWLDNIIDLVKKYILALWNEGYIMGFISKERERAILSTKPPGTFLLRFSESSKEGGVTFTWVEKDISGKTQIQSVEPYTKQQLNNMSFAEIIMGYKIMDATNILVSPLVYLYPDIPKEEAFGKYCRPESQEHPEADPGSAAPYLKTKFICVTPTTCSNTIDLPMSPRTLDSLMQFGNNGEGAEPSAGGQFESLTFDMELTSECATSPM"}, "source": "patent US5707803", "key": {"[1]": {"tested_on": "GM-CSF-activated GAS-binding complex (STAT5 presumed)", "experiment": "EMSA", "details": "labelled probe; protein in an extract; protein details: nuclear extract of GM-CSF-treated U937 cells; label: 32P fill-in"}, "[2]": {"biological_target": "STAT1alpha (IFN-gamma activated, p91 complex) (UniProt P42224)", "experiment": "EMSA", "details": "labelled probe, HEPES pH 7.6, 80 mM NaCl, room temperature; protein in an extract; protein details: nuclear extract of IFN-gamma-treated HepG2 cells; label: 32P fill-in"}, "[3]": {"biological_target": "STAT3 (IL-6 activated homodimer) (UniProt P40763)", "experiment": "EMSA", "details": "labelled probe, complex B; protein in an extract; protein details: nuclear extract of IL-6-treated HepG2 cells; label: 32P fill-in"}, "[4]": {"biological_target": "STAT1alpha (IFN-gamma activated, p91 complex) (UniProt P42224)", "experiment": "competition with a labelled probe", "details": "protein in an extract, protein details: nuclear extract of IFN-gamma-treated HepG2 cells, variant of Ly6E GAS element (WT)"}, "[5]": {"biological_target": "STAT3 (IL-6 activated homodimer) (UniProt P40763)", "experiment": "competition with a labelled probe", "details": "protein in an extract, protein details: nuclear extract of IL-6-treated HepG2 cells, variant of Ly6E GAS element (WT)"}, "[6]": {"tested_on": "GM-CSF-activated GAS-binding complex (STAT5 presumed)", "experiment": "competition with a labelled probe", "details": "protein in an extract, protein details: nuclear extract of GM-CSF-treated U937 cells, variant of Ly6E GAS element (WT)"}}, "note": "Results from cells or extracts need not show a direct contact. For some assays here: Negatives hold for the conditions tested. For some assays here: The comparison behind a weaker result is the experiment's own reference, which may not be listed here. For some assays here: The exact form of at least one protein or probe is not confirmed.", "data": [{"sequence": "GATCATATTCCTGTAAGTG / GATCCACTTACAGGAATAT [Ly6E GAS element (WT)]", "values": [{"measurement": "binding result", "setting": "[1]", "result": "binds"}, {"measurement": "binding result", "setting": "[2]", "result": "binds"}, {"measurement": "binding result", "setting": "[3]", "result": "binds"}]}, {"sequence": "TCTTCCTGTAAGTG (double strand) [2C]", "values": [{"measurement": "binding result", "setting": "[4]; binds STATs less well than 7C", "result": "binds more weakly"}, {"measurement": "binding result", "setting": "[5]; binds STATs less well than 7C", "result": "binds more weakly"}]}, {"sequence": "GATCATATTCCTATAAGTG / GATCCACTTATAGGAATAT [8A]", "values": [{"measurement": "binding result", "setting": "[4]; score 4 or 5, preferential for STAT1alpha over STAT3", "result": "binds"}, {"measurement": "binding result", "setting": "[5]; binds STAT1alpha preferentially over STAT3", "result": "binds more weakly"}]}, {"sequence": "TATTCCTGGAAGTG (double strand) [9G]", "values": [{"measurement": "binding result", "setting": "[6]; tighter than WT", "result": "binds"}, {"measurement": "binding result", "setting": "[4]; tighter than WT", "result": "binds"}, {"measurement": "binding result", "setting": "[5]; tighter than WT", "result": "binds"}]}, {"sequence": "TATTCCTTTAAGTG (double strand) [8T]", "values": [{"measurement": "binding result", "setting": "[6]; complex unaffected", "result": "no binding"}, {"measurement": "binding result", "setting": "[5]; complex B unaffected", "result": "no binding"}]}, {"sequence": "GATCATATTCCCGTAAGTG / GATCCACTTACGGGAATAT [7C]", "values": [{"measurement": "binding result", "setting": "[6]; selective for STAT1/STAT3", "result": "no binding"}, {"measurement": "binding result", "setting": "[4]; binds better than WT", "result": "binds"}, {"measurement": "binding result", "setting": "[5]; binds better than WT", "result": "binds"}]}, {"sequence": "TATTCTTGTAAGTG (double strand) [6T]", "values": [{"measurement": "binding result", "setting": "[4]; binds STATs less well than 7C", "result": "binds more weakly"}, {"measurement": "binding result", "setting": "[5]; binds STATs less well than 7C", "result": "binds more weakly"}]}]}
